# Test results as given in the supplement of paper PMC12819154, “High-throughput peptide-centric local stability assay extends protein–ligand identification to membrane proteins, tissues and bacteria” (Nature Structural & Molecular Biology, 2025).
# By UniProt entry, the sequences of proteins in these tests, tags left out. Where a name states a change or a piece, a line headed by the entry shows the natural chain unless it says otherwise.
# UniProt Q9QUR6: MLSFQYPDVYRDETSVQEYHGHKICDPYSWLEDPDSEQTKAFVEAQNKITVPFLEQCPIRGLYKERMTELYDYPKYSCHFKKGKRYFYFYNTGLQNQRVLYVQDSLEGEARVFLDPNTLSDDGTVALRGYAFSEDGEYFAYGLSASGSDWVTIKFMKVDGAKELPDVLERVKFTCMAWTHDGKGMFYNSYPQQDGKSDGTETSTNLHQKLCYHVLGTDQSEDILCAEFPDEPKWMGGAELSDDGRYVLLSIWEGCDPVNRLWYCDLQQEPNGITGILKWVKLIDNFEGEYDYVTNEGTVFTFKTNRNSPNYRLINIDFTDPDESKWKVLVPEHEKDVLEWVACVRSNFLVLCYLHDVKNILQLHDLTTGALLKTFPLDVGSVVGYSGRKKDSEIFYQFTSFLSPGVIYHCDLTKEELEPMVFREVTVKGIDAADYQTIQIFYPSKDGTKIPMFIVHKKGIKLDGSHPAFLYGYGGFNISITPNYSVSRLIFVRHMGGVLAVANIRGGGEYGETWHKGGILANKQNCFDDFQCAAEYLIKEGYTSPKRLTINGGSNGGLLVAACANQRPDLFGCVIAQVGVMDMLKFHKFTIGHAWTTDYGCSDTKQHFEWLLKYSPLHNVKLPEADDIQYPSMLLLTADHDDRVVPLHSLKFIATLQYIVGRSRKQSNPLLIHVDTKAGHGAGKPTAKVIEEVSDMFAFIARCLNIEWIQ
# UniProt Q9JM99, whole entry: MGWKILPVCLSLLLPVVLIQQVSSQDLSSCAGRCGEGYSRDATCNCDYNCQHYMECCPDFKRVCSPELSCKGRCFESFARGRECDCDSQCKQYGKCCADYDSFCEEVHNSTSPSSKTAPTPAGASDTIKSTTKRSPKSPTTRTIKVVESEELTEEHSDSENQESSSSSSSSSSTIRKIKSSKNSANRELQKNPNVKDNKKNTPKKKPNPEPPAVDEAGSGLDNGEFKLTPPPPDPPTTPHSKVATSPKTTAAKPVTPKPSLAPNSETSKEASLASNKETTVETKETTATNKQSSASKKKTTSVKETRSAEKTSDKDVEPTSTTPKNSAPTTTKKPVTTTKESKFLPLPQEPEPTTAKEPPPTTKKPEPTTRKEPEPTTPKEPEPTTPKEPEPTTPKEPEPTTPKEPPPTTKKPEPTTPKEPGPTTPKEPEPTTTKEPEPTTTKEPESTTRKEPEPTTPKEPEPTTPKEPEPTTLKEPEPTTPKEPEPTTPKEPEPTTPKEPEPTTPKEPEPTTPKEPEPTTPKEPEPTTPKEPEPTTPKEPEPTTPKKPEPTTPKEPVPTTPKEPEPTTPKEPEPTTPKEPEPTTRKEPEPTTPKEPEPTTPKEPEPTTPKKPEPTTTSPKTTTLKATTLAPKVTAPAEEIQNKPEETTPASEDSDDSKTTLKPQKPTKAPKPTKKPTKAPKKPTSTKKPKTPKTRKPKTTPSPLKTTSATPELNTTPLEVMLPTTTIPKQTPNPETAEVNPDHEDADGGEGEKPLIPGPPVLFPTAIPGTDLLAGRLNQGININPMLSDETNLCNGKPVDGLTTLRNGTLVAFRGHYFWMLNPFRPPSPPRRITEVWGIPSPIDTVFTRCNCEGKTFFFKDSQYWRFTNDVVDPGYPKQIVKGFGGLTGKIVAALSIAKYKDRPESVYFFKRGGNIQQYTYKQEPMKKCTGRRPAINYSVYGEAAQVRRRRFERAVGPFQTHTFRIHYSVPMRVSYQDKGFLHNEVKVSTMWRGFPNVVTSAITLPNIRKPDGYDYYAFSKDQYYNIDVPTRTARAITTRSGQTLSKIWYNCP
# UniProt Q9JK53: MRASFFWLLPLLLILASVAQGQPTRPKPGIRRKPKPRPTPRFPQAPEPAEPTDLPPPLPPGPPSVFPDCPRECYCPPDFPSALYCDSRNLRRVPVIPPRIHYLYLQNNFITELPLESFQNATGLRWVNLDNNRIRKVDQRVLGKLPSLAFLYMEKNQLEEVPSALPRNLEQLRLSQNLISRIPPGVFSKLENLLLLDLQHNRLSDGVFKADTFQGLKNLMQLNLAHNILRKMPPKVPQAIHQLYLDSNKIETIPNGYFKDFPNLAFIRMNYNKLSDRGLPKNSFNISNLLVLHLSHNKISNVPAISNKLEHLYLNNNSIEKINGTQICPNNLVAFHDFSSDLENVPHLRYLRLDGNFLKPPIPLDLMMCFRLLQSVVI
# UniProt Q9JLB9, whole entry: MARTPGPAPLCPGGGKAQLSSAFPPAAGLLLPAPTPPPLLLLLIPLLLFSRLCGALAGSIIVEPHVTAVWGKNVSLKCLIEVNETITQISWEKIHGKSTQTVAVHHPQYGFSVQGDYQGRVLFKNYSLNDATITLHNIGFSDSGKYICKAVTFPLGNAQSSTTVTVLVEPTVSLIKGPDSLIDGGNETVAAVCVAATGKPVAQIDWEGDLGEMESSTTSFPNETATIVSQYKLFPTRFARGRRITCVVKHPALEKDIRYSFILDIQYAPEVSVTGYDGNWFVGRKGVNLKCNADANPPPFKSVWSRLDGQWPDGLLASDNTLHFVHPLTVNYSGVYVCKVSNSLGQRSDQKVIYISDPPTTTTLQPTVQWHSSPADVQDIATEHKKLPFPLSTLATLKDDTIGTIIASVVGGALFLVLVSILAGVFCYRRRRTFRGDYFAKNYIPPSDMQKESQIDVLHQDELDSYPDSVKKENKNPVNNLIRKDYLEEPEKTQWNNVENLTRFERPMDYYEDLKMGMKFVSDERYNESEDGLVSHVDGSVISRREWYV
# UniProt Q9JJ80: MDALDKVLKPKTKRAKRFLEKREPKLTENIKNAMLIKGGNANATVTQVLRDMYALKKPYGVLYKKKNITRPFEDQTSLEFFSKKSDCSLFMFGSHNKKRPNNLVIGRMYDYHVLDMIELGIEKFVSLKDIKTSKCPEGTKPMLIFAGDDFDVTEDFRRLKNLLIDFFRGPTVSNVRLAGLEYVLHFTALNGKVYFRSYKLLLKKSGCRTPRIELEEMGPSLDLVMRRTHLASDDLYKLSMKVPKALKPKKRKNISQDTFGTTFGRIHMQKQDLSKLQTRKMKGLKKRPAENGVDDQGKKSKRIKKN
# UniProt Q9JIB4: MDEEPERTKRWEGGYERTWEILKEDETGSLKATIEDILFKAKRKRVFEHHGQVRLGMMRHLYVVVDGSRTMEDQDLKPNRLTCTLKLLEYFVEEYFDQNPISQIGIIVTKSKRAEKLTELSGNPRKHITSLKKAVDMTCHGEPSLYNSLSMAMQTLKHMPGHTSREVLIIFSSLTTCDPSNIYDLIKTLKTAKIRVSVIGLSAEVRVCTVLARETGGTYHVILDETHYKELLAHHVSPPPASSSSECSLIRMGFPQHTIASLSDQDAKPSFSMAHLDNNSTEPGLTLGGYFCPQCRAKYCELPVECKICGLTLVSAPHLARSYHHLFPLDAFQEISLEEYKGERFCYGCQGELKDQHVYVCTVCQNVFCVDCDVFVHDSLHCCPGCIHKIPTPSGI
# UniProt Q9JJY3: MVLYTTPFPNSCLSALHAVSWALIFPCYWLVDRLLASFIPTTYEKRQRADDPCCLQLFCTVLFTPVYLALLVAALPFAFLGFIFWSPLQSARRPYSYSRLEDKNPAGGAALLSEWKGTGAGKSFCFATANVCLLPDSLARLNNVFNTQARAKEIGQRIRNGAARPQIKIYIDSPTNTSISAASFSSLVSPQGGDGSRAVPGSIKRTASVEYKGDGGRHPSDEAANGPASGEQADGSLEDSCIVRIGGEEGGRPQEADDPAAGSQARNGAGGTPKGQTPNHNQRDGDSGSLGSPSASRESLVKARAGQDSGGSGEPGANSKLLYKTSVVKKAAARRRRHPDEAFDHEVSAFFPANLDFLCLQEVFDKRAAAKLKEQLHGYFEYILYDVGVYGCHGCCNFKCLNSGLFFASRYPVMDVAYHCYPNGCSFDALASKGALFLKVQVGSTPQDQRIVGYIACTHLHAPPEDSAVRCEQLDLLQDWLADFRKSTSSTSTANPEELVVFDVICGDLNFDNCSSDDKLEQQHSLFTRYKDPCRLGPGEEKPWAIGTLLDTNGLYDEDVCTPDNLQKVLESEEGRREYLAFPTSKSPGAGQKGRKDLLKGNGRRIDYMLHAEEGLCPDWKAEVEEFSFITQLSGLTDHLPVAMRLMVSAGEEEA
# UniProt Q9JKC6: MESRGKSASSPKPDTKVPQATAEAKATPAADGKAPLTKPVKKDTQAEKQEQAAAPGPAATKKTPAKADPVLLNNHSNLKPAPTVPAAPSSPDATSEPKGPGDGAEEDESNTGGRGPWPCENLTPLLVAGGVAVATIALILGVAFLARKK
# UniProt Q9JHS4, whole entry: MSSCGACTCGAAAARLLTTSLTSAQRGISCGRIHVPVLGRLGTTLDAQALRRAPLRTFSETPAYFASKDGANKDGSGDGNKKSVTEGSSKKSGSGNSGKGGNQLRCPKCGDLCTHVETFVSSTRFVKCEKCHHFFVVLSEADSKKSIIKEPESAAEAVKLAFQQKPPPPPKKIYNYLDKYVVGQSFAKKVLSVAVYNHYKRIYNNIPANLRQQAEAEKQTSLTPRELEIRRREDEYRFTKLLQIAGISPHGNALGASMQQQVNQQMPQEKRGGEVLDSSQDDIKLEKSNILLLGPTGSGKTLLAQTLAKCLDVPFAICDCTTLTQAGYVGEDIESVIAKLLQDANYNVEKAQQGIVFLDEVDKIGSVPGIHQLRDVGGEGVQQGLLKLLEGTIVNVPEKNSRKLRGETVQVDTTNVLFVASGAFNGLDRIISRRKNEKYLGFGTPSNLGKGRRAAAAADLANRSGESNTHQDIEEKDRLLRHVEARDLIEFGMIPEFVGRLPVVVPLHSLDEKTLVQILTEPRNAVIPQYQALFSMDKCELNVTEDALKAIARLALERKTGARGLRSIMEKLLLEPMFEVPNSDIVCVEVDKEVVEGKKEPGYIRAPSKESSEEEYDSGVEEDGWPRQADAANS
# UniProt Q9JJL8: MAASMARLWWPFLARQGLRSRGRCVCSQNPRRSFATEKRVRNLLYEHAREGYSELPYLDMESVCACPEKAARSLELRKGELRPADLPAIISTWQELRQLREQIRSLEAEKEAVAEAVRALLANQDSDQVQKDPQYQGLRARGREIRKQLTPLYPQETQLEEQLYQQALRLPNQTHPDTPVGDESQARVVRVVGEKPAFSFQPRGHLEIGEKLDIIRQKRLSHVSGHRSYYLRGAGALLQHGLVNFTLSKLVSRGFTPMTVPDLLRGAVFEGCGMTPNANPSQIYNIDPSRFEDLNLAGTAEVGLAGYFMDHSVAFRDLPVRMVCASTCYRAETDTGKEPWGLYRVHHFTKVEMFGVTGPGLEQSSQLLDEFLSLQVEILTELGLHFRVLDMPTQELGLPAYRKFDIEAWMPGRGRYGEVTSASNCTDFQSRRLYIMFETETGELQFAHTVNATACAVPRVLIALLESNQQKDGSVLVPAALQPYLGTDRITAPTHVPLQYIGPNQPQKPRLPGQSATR
# UniProt Q9JIS3: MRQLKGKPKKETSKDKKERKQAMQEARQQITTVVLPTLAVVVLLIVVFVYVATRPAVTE
# UniProt Q9JM13, whole entry: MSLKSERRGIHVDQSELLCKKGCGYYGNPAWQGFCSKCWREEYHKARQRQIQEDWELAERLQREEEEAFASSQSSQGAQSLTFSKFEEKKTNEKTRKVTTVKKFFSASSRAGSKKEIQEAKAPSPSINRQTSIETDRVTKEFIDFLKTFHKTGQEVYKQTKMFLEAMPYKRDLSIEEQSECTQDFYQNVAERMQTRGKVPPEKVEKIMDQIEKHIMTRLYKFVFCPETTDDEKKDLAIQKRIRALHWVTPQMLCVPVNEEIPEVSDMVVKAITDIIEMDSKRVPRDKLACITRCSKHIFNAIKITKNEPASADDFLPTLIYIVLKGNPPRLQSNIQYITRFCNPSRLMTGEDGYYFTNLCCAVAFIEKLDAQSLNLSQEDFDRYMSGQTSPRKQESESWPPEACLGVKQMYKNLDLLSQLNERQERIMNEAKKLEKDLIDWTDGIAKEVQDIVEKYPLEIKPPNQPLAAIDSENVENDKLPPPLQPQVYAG
# UniProt Q9JKC7: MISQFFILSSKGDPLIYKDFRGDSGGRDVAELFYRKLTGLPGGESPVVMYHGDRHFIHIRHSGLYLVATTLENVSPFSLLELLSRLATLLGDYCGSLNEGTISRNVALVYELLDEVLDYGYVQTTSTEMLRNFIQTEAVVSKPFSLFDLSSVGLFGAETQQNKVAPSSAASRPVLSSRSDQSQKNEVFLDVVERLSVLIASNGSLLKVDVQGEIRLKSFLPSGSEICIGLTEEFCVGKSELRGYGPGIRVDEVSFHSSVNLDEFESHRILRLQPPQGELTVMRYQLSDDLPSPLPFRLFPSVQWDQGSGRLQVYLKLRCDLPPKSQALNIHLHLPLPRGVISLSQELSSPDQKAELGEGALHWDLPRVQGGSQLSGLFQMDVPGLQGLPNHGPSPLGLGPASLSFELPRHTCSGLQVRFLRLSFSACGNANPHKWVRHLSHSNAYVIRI
# UniProt Q9JK92: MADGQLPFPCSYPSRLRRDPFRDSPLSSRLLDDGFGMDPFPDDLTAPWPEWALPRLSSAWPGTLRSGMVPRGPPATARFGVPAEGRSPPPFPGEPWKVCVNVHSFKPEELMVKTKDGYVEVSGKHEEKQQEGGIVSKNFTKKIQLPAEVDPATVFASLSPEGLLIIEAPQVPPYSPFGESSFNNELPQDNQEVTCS
# The list shows a part of the results. Most entries show no effect beyond the scatter of the controls.
# Compound: CN[C@@H]1C[C@H]2O[C@@](C)([C@@H]1OC)n1c3ccccc3c3c4c(c5c6ccccc6n2c5c31)C(=O)NC4 [staurosporine]
# Assay: log2 fold change of tryptic peptide abundance, ligand vs vehicle (limited proteolysis) (log2 ratio); higher = more trypsin-susceptible (destabilized)
# Details: ligand concentration: 20 uM; sample: mouse liver crude lysate; replicate design: treated separately
row,Target,log2 fold change
1,"UniProt Q9JII6 (peptide sequence: AVPREELFVTSK, peptide start residue: 69)",-0.435
2,"UniProt Q9JHT5 (peptide sequence: AGELGLGGAGTR, peptide start residue: 41)",0.209
3,"UniProt Q9QX11 (peptide sequence: RKQELLADIQR, peptide start residue: 26)",-0.202
4,"UniProt Q9QUM9 (peptide sequence: AINQGGLTSVAVR, peptide start residue: 31)",0.367
5,"UniProt Q9QWH1 (peptide sequence: DLDLPDMHMR, peptide start residue: 760)",-0.243
6,"UniProt Q9ES00 (peptide sequence: HLLNSPTDPFNR, peptide start residue: 1132)",-0.33
7,"UniProt Q9JHL1 (peptide sequence: SDLPGSEKDNEDGSTWK, peptide start residue: 275)",-0.196
8,"UniProt Q9JLC8 (peptide sequence: RTFSTSASR, peptide start residue: 4381)",0.141
9,"UniProt Q9QUR6 (peptide sequence: VVPLHSLK, peptide start residue: 644)",-0.0517
10,"UniProt Q9JM99 (peptide sequence: AVGPFQTHTFR, peptide start residue: 956)",0.471
11,"UniProt Q9JK53 (peptide sequence: ISNVPAISNK, peptide start residue: 299)",0.231
12,"UniProt Q9JLB9 (peptide sequence: STQTVAVHHPQYGFSVQGDYQGR, peptide start residue: 98)",0.219
13,"UniProt Q9JIK9 (peptide sequence: MRPWDYPAK, peptide start residue: 198)",0.368
14,"UniProt Q9QX60 (peptide sequence: VQLEPIPGR, peptide start residue: 121)",-0.561
15,"UniProt Q9JKR6 (peptide sequence: EAGMQPQLQIR, peptide start residue: 252)",0.123
16,"UniProt Q9ESZ8 (peptide sequence: RPELLTHSTTEVTQPR, peptide start residue: 540)",-0.773
17,"UniProt Q9ESW8 (peptide sequence: LIPALWEK, peptide start residue: 57)",-0.0474
18,"UniProt Q9JJ80 (peptide sequence: GGNANATVTQVLR, peptide start residue: 38)",0.731

# As a short view, part of the list above:
row,Target,log2 fold change
15,"UniProt Q9JKR6 (peptide sequence: EAGMQPQLQIR, peptide start residue: 252)",0.123
16,"UniProt Q9ESZ8 (peptide sequence: RPELLTHSTTEVTQPR, peptide start residue: 540)",-0.773

# Remaining list, next part

row,Target,log2 fold change
1,"UniProt Q9JIB4 (peptide sequence: MDEEPERTK, peptide start residue: 1)",-0.52
2,"UniProt Q9JJY3 (peptide sequence: DGDSGSLGSPSASR, peptide start residue: 284)",0.0771
3,"UniProt Q9JJX6 (peptide sequence: FDIIVFGK, peptide start residue: 319)",0.429
4,"UniProt Q9ES28 (peptide sequence: KSTAALEEDAQILK, peptide start residue: 681)",-0.363
5,"UniProt Q9JKC6 (peptide sequence: QEQAAAPGPAATK, peptide start residue: 49)",0.49
6,"UniProt Q9JHS4 (peptide sequence: VLSVAVYNHYKR, peptide start residue: 190)",-0.148
7,"UniProt Q9ERZ6 (peptide sequence: QLLAHPIQGPGLR, peptide start residue: 436)",0.266
8,"UniProt Q9JKB1 (peptide sequence: FMERDPDELR, peptide start residue: 212)",-0.385
9,"UniProt Q9JJL8 (peptide sequence: NLLYEHAR, peptide start residue: 42)",0.107
10,"UniProt Q9JIS3 (peptide sequence: KQAMQEAR, peptide start residue: 20)",0.154
11,"UniProt Q9ESV0 (peptide sequence: FGATAHLGSPCKDRTESGVLPEEAR, peptide start residue: 280)",-0.168
12,"UniProt Q9JM13 (peptide sequence: IMDQIEK, peptide start residue: 207)",0.0966
13,"UniProt Q9JKC7 (peptide sequence: VAPSSAASRPVLSSR, peptide start residue: 164)",-0.119
14,"UniProt Q9JK92 (peptide sequence: TKDGYVEVSGK, peptide start residue: 114)",-0.131
15,"UniProt Q9JKK8 (peptide sequence: TLQVLLPDLAAK, peptide start residue: 994)",-0.165
16,"UniProt Q9JKX4 (peptide sequence: QWLAIQK, peptide start residue: 456)",0.529
17,"UniProt Q9ET01 (peptide sequence: TFAYTNHTVLPEALER, peptide start residue: 372)",-0.646
18,"UniProt Q9JID9 (peptide sequence: SHGLFVIR, peptide start residue: 430)",0.561
